Laboratory results: PMC7819943, “Rice protein-binding microarrays: a tool to detect cis-acting elements near promoter regions in rice”
Some of the results follow.

The chains behind the UniProt entries cited, without tags or fusion partners.
UniProt Q0JBA9, entry or part of it: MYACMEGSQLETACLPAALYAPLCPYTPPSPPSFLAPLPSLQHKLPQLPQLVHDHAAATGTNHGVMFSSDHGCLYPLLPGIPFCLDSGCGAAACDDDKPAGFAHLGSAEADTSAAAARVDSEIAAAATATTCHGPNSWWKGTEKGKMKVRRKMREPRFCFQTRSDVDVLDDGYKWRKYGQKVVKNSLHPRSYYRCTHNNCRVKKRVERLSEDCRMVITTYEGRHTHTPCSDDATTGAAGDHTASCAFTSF

What follows are sequences tested against OsWRKY34 (Oryza sativa, UniProt Q0JBA9 1-250) (assay: protein-binding microarray (RPBM); PBS, 2% BSA, 51.3 ng/ul salmon testes DNA, 50 uM zinc acetate, 200 nM TF, 25 C, 1 h; high values mean tight binding). Details: protein: recombinant; tags: N-terminal polyhistidine and DsRed monomer fusion (pET32a); label: CyDye5-dUTP incorporated in the synthesized complementary strand; 3' TTTTT single-stranded linker to array surface; dsDNA, one strand shown.
In short: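 Per-feature fluorescence intensity (arbitrary units), read on an Axon 4000B scanner, is the binding signal. Transcription factors carrying an N-terminal polyhistidine tag and DsRed fusion were expressed in E. coli BL21-CodonPlus and purified on Ni–NTA. A custom Agilent array, made double-stranded by primer extension with Cy5-dUTP and blocked with 2% BSA, was incubated with 200 nM protein in PBS, 2% BSA, salmon testes DNA and 50 µM zinc acetate at 25 °C for 1 h and then washed.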

Sequence | binding signal
CACTACTCCACCCTACATGCCAGATCCGGTCAACAACAATCGGAGTCACCTAGTGCAG | 10000 fluorescence intensity (a.u.)
CTCAGTATTGGGTTGGGTGGTGGTGGCGGCGGTGGCAGTGCGGAGTCACCTAGTGCAG | 13700 fluorescence intensity (a.u.)
GTAAGTCATTCTAGCATTTTCCACATTCATATTAATGTTACGGAGTCACCTAGTGCAG | 8840 fluorescence intensity (a.u.)
AATCCACTGTATTTATCGTTTCCACCACATATTTTCCTCTCGGAGTCACCTAGTGCAG | 14000 fluorescence intensity (a.u.)
GTCGCCATCAACTCCGAGTCGACGTCGTCCTTCCTGCCGTCGGAGTCACCTAGTGCAG | 9570 fluorescence intensity (a.u.)
GGATTTGATTTGGAAGGATTTGGATTCGGAAATGAGCTCGCGGAGTCACCTAGTGCAG | 8210 fluorescence intensity (a.u.)
CTTATACTACTCCTATGTGCTAATACGGTCGCAGGGAAAACGGAGTCACCTAGTGCAG | 9760 fluorescence intensity (a.u.)
CAAGTCTCAACGTTCTCAACGTTGACCGTATAGCGATTCGCGGAGTCACCTAGTGCAG | 9640 fluorescence intensity (a.u.)
CTGCTACAGCTTTACAACTCTATGGCCGTCTCTATATAAGCGGAGTCACCTAGTGCAG | 8070 fluorescence intensity (a.u.)
GGCCTTAGGGAGATGCTGGTTTTTGCTAATATGGCTCTTTCGGAGTCACCTAGTGCAG | 9810 fluorescence intensity (a.u.)
GTGCGTTGTGTGGTTGGTTGGTCAGTGTCTGGGTGGTCACCGGAGTCACCTAGTGCAG | 11400 fluorescence intensity (a.u.)
CGTGGTTGTGTGTGTGATTGCAGAAAAAAAAAAATCCTATCGGAGTCACCTAGTGCAG | 8610 fluorescence intensity (a.u.)
CCCGGCCTTGTTCGCGCTGTTCCTATAAACTCCCACTGACCGGAGTCACCTAGTGCAG | 10000 fluorescence intensity (a.u.)
TTTCTTTCATTTGTTGGCTACGACTTCCTTCTGCTCCTCTCGGAGTCACCTAGTGCAG | 8450 fluorescence intensity (a.u.)
TTACCCGAGAGACGCCACCTCACCGCACCCCGTCTCACAGCGGAGTCACCTAGTGCAG | 11900 fluorescence intensity (a.u.)
ACATTTACTTGTTGCAATGTACGTGTATTTTTTCTAGTAACGGAGTCACCTAGTGCAG | 10300 fluorescence intensity (a.u.)
TGTGGGTTTTAGCTTTTGCAGCCCGGATCGTTGACCCTTCCGGAGTCACCTAGTGCAG | 11400 fluorescence intensity (a.u.)
AGAGCTAGAACACCACTTGATTACCAGCTACGTACCCTAACGGAGTCACCTAGTGCAG | 8410 fluorescence intensity (a.u.)
TGCACCACCACTGTGCGCGTCTCCCGCCTCTTGCGCTCTCCGGAGTCACCTAGTGCAG | 8770 fluorescence intensity (a.u.)
GCCGTTAACTTTTTTAAATATGTTTGACCGTTCGTCTTATCGGAGTCACCTAGTGCAG | 10800 fluorescence intensity (a.u.)
TTTCACTTTATCTGTGTATGTGATTCAACAAGTTGTTGACCGGAGTCACCTAGTGCAG | 9160 fluorescence intensity (a.u.)

Reformatted with tabs: part of the list above.
Sequence	binding signal
GTAAGTCATTCTAGCATTTTCCACATTCATATTAATGTTACGGAGTCACCTAGTGCAG	8840 fluorescence intensity (a.u.)
GGATTTGATTTGGAAGGATTTGGATTCGGAAATGAGCTCGCGGAGTCACCTAGTGCAG	8210 fluorescence intensity (a.u.)
CTTATACTACTCCTATGTGCTAATACGGTCGCAGGGAAAACGGAGTCACCTAGTGCAG	9760 fluorescence intensity (a.u.)
GGCCTTAGGGAGATGCTGGTTTTTGCTAATATGGCTCTTTCGGAGTCACCTAGTGCAG	9810 fluorescence intensity (a.u.)
CCCGGCCTTGTTCGCGCTGTTCCTATAAACTCCCACTGACCGGAGTCACCTAGTGCAG	10000 fluorescence intensity (a.u.)
TTTCTTTCATTTGTTGGCTACGACTTCCTTCTGCTCCTCTCGGAGTCACCTAGTGCAG	8450 fluorescence intensity (a.u.)

(next part)

Sequence | binding signal
TGAGTCCTTACCTCTCTCTCTCCAATGTTCGTCTGCGGCACGGAGTCACCTAGTGCAG | 8390 fluorescence intensity (a.u.)
TTATGTTTCTACCTGCCATCCAGTTTCGTTCTCAAGTTTTCGGAGTCACCTAGTGCAG | 13800 fluorescence intensity (a.u.)
CCATAGAAGTTGTGGTTGGTTTATGTTTTTCACATGTTCTCGGAGTCACCTAGTGCAG | 15200 fluorescence intensity (a.u.)
AAGAAATCTCTTTGAAAAACTTGCATGCTAACTTGAGACGCGGAGTCACCTAGTGCAG | 44900 fluorescence intensity (a.u.)
AGATATATCCTGCATTCTCTTTGGTGGCATGCAAACTCAACGGAGTCACCTAGTGCAG | 8310 fluorescence intensity (a.u.)
TGTTAATTATTTTTCTATCATGATGCTATATCATTTTAATCGGAGTCACCTAGTGCAG | 9190 fluorescence intensity (a.u.)
GTTTTTGCAGGGAAGTCAGTTGCAACGCCGGCCATTTCATCGGAGTCACCTAGTGCAG | 9260 fluorescence intensity (a.u.)
CGGGGCGGGCTAACAAGAAGGTAGGATTGGATGGATATAGCGGAGTCACCTAGTGCAG | 10700 fluorescence intensity (a.u.)
AGCCGCAGAGTTCTTCATGGGCGGGATGGCAGTTCTTACTCGGAGTCACCTAGTGCAG | 11900 fluorescence intensity (a.u.)
GAGGGCGGCTATGGGGTTGTTTACCACGGTCGTCTTATAACGGAGTCACCTAGTGCAG | 9060 fluorescence intensity (a.u.)
TCAGATATAGCTGGCTGTAGAATTCACCACTTGATCAATTCGGAGTCACCTAGTGCAG | 8060 fluorescence intensity (a.u.)
AGCTTTCATGATCTTTTTCTGTCTATTTCGCTTGCACTCTCGGAGTCACCTAGTGCAG | 14600 fluorescence intensity (a.u.)
CACATTTGCGCTTTCCGACGCCTTTGCTGCGCGACTCGTTCGGAGTCACCTAGTGCAG | 10700 fluorescence intensity (a.u.)
CATATTTTGTTTTAACTTTTTAGTCTTTTATTTTTTTTATCGGAGTCACCTAGTGCAG | 9800 fluorescence intensity (a.u.)
ATCTCCACCATCGCCGTCGCCGTCGCCTCGCCTCGTCACGCGGAGTCACCTAGTGCAG | 8990 fluorescence intensity (a.u.)
AGCTAGTAAGATCTGTCTGGTGTCAATTGTTGTCGTTTGCCGGAGTCACCTAGTGCAG | 8920 fluorescence intensity (a.u.)
TCAACCACGATCAACCTTCCACATCTGCAGAAACCGATTTCGGAGTCACCTAGTGCAG | 9450 fluorescence intensity (a.u.)
TGTAGTACTACTACTGTTTTTCCTCTGTAACCACATGCTTCGGAGTCACCTAGTGCAG | 8480 fluorescence intensity (a.u.)
ATGGTAGGTTTTAAGTTTTCACCGTATACATAGTTTTCACCGGAGTCACCTAGTGCAG | 9460 fluorescence intensity (a.u.)
TGATGCCGTTATTGTTCGAGTTCATGGCTTGTTAGATCTACGGAGTCACCTAGTGCAG | 9220 fluorescence intensity (a.u.)
CCTCCATTAGTCCGACGCATTCTGCATTTTGTACACATTACGGAGTCACCTAGTGCAG | 8260 fluorescence intensity (a.u.)

Sequence | binding signal
CGCATGCGTGCATGGATCTCCGCGCTCGTTGACTGACCTGCGGAGTCACCTAGTGCAG | 8990 fluorescence intensity (a.u.)
GTGGGGATTGGGTAGGAGAAGGAGTGGGGAATTAGGTTAGCGGAGTCACCTAGTGCAG | 12200 fluorescence intensity (a.u.)
GTTCTCGTCGTTCGTGTTCTTCTGCTTCGGTTTCGTGGTGCGGAGTCACCTAGTGCAG | 11900 fluorescence intensity (a.u.)
GTGACATTGCAATTTCTGGTCTCGGGTGGGTTGCGGTTGACGGAGTCACCTAGTGCAG | 15600 fluorescence intensity (a.u.)
CGGACAAGGACAAGCCTTGCTCGGTGGGTGGTTGGGGATACGGAGTCACCTAGTGCAG | 10900 fluorescence intensity (a.u.)
GCACCTCCGGCAACTCCGATTACGGCGGCATCGGGGCGGGCGGAGTCACCTAGTGCAG | 8810 fluorescence intensity (a.u.)
CCTCTCATCTCTCTGTTCTTCCAATCCTAGTTTCTGTTCTCGGAGTCACCTAGTGCAG | 8040 fluorescence intensity (a.u.)
CCCCTAGCGCCACCCGAGCCGTCGCCCTCTTCGTCGCCAACGGAGTCACCTAGTGCAG | 8720 fluorescence intensity (a.u.)
TTAAAACACTTTTCATGTTTTTGGTGCCTCTTGTGTTTTGCGGAGTCACCTAGTGCAG | 10100 fluorescence intensity (a.u.)
TTCCATGTTTCCGATAGCTCGCACCACCAAGACATCCTCGCGGAGTCACCTAGTGCAG | 9930 fluorescence intensity (a.u.)
TTGTTTGGTTGGGACACATGTGAATTTTGGTAGGATGGGGCGGAGTCACCTAGTGCAG | 12100 fluorescence intensity (a.u.)
CCTTCGCCGAGCTCCCTATATATCGCCGTCGTCTCGCACTCGGAGTCACCTAGTGCAG | 9330 fluorescence intensity (a.u.)
CTCGCTCTTCCGGCATTCTACCGTGAGAGGACATCACGCTCGGAGTCACCTAGTGCAG | 9420 fluorescence intensity (a.u.)
GTTATTCATTATTTATATTCCCAAGGTTTGACTTAAACATCGGAGTCACCTAGTGCAG | 10100 fluorescence intensity (a.u.)
TCTGCTCCTTACCTCCCCGGCCCCTGCTCCATTTCGCTGCCGGAGTCACCTAGTGCAG | 13000 fluorescence intensity (a.u.)
CAAAACTGTCTTTACACAGCCCCTAACACCTATGTTATGTCGGAGTCACCTAGTGCAG | 8360 fluorescence intensity (a.u.)
CTCTGAAATCCAGCTTCTCCAGCTTCTGGCTTTTTAGTTCCGGAGTCACCTAGTGCAG | 11000 fluorescence intensity (a.u.)
GTCCCACTTTTTTTTTTATTTTTGTGTGTGAAACTGATATCGGAGTCACCTAGTGCAG | 10700 fluorescence intensity (a.u.)
TCCTTGCGCCGCCGCCGCCTTGCCTTACCTCCCCGGCTTCCGGAGTCACCTAGTGCAG | 8570 fluorescence intensity (a.u.)
AGCTTATAAATAGTGCTGCCTAGCTTCTCTCTCTCTCAATCGGAGTCACCTAGTGCAG | 8090 fluorescence intensity (a.u.)
GCTTCTTCTCGGTTTGTTCGTTCCTTGTGGTTGAGAGTGACGGAGTCACCTAGTGCAG | 12300 fluorescence intensity (a.u.)

Sequence | binding signal
GTAGTTTGTGTGCGTGTTGTCGGCGTATGCATTTTAACTACGGAGTCACCTAGTGCAG | 8780 fluorescence intensity (a.u.)
TTCATGTCGCAGTCCGATTCACACGCCGACCACGACGAGCCGGAGTCACCTAGTGCAG | 9410 fluorescence intensity (a.u.)
CGGATAATTTTTCAATCTCTCGGTGATAGATGGCATACCCCGGAGTCACCTAGTGCAG | 8180 fluorescence intensity (a.u.)
ACACAGGCAGCAGTAGCACCTCGATCCATCTACCATTTTACGGAGTCACCTAGTGCAG | 10200 fluorescence intensity (a.u.)
ACATACCAATCCGTCTGCATTGCCACAACCAACACACATTCGGAGTCACCTAGTGCAG | 12400 fluorescence intensity (a.u.)
TTTGGGTGGGTGGCTGCTGCAACATCGATGTCACTATGCCCGGAGTCACCTAGTGCAG | 9900 fluorescence intensity (a.u.)
CGGTCGTCCCTGCTGGCAATTTACTTGTGTGTTTGTGTGTCGGAGTCACCTAGTGCAG | 10800 fluorescence intensity (a.u.)
TGCCTTCCTTAACTCCTGTGTTAATTCGACCACAACTTTACGGAGTCACCTAGTGCAG | 8030 fluorescence intensity (a.u.)
ACTACTTTTGACTTAGCTGTCCTTCATTTCTGTCAGTCCTCGGAGTCACCTAGTGCAG | 9620 fluorescence intensity (a.u.)
GTGCCGCATGCTGACCCTTGACTTTGACTGACAGTGACCGCGGAGTCACCTAGTGCAG | 9300 fluorescence intensity (a.u.)
TCCTGAACTGTTGCTCTCGGTTTCTGCTTACAAGGTTTTCCGGAGTCACCTAGTGCAG | 9750 fluorescence intensity (a.u.)
TCGTCGATGGCTTCCACCCGGACCAGCTCCCGGTCCACCTCGGAGTCACCTAGTGCAG | 8080 fluorescence intensity (a.u.)
TCCCACCCGCACGGAATCCAAGTCCCATCTAAATCACGCACGGAGTCACCTAGTGCAG | 8280 fluorescence intensity (a.u.)
CACTCTCATCGCCGATAGCACGGAGCTTCTGAATCTTTCTCGGAGTCACCTAGTGCAG | 8870 fluorescence intensity (a.u.)
CCCCGTCAACATCATCATCTTTATTAATTCTCTTTTGGCACGGAGTCACCTAGTGCAG | 8170 fluorescence intensity (a.u.)
GTGGGGTTGGGTTACGTGGTGGAGCTGAGCCCGGCGGCGCCGGAGTCACCTAGTGCAG | 11600 fluorescence intensity (a.u.)
TGCAGTTCGTTGTCACAAATCATATATTTTTCCATGGCACCGGAGTCACCTAGTGCAG | 8900 fluorescence intensity (a.u.)
GTTTTGTCCTTCTCATATTTTCACAAACTATACCCACAAGCGGAGTCACCTAGTGCAG | 11500 fluorescence intensity (a.u.)
ACCACTAACTGAAAACGACAACACAACTACTACTAACCTACGGAGTCACCTAGTGCAG | 8260 fluorescence intensity (a.u.)
GGAGGGGAGGATTAATTTCTTCTTTTTCTTAATTATTTTGCGGAGTCACCTAGTGCAG | 9990 fluorescence intensity (a.u.)
TGTCGTTGTGTTATCTATCTCCAATCAATTTTCATGGAAACGGAGTCACCTAGTGCAG | 8070 fluorescence intensity (a.u.)

Some of the entries so far, in markdown:

| Sequence | binding signal |
| --- | --- |
| TTCATGTCGCAGTCCGATTCACACGCCGACCACGACGAGCCGGAGTCACCTAGTGCAG | 9410 fluorescence intensity (a.u.) |
| ACATACCAATCCGTCTGCATTGCCACAACCAACACACATTCGGAGTCACCTAGTGCAG | 12400 fluorescence intensity (a.u.) |
